Consider 18 molecules from publication PMC6143588, “A variant NuRD complex containing PWWP2A/B excludes MBD2/3 to regulate transcription at active genes” (Nature Communications, 2018).

Amino acid sequences for entries named in this document (tags omitted).
UniProt Q6PDQ2: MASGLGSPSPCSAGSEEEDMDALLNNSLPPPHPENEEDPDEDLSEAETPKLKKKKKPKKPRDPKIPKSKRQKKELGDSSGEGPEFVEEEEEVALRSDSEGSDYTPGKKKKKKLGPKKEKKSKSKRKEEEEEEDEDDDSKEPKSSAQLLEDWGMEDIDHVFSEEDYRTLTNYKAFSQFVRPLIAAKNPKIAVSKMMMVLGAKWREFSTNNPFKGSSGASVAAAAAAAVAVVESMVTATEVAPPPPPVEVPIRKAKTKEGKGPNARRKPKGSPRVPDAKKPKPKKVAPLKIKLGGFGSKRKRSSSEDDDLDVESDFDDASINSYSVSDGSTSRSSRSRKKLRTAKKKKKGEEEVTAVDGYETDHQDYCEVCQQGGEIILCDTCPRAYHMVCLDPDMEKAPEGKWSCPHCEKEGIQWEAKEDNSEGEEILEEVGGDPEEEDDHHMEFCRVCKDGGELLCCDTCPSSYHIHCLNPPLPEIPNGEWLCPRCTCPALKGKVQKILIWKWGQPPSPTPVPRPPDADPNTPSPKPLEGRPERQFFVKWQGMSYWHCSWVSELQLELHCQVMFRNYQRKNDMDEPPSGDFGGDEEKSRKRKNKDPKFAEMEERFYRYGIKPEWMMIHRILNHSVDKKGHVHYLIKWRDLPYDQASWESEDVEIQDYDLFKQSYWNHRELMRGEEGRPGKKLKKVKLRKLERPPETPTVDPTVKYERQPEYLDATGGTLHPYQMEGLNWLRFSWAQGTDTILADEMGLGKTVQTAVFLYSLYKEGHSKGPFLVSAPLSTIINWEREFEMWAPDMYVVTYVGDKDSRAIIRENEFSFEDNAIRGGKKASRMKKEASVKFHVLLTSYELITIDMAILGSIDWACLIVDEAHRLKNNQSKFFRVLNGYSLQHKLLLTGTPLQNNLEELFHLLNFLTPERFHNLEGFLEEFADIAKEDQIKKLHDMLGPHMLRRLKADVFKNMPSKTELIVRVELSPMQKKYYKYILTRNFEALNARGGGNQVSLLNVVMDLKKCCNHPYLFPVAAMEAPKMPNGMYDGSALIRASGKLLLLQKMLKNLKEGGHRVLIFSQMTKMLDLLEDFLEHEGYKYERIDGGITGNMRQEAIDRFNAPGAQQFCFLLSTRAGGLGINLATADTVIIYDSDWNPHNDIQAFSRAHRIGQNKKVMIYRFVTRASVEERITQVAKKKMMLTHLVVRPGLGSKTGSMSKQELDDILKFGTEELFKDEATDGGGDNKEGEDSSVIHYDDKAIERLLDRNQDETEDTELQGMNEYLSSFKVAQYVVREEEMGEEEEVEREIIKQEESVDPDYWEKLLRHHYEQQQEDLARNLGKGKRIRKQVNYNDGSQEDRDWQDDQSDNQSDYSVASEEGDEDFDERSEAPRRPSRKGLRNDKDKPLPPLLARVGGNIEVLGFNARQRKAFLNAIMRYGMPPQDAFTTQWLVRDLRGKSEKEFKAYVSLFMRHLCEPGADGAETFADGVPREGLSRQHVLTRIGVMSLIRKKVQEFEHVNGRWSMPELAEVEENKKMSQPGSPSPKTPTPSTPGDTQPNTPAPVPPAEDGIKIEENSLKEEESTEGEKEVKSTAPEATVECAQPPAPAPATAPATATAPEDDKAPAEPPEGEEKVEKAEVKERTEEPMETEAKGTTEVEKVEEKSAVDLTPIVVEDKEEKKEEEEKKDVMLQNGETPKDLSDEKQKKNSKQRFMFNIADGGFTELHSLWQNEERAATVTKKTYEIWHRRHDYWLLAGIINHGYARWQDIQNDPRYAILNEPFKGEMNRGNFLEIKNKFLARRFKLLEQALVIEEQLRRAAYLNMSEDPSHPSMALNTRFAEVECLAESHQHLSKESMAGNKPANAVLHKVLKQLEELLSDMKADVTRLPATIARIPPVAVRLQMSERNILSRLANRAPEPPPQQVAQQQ
UniProt P70288: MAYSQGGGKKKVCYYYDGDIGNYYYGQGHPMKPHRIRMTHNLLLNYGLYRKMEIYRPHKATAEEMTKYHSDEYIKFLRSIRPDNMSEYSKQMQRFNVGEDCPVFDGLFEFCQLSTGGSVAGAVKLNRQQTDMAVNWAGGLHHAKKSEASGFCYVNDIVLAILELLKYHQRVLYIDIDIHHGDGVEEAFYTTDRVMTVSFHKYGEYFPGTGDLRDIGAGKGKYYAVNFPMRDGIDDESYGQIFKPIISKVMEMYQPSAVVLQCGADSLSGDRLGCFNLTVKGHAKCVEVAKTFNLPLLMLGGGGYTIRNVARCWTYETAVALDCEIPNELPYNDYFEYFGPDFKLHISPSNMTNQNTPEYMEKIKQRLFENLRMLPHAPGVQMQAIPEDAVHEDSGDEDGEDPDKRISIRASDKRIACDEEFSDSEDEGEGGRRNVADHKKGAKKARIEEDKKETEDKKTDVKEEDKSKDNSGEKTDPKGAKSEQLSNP
UniProt Q9Z2E1: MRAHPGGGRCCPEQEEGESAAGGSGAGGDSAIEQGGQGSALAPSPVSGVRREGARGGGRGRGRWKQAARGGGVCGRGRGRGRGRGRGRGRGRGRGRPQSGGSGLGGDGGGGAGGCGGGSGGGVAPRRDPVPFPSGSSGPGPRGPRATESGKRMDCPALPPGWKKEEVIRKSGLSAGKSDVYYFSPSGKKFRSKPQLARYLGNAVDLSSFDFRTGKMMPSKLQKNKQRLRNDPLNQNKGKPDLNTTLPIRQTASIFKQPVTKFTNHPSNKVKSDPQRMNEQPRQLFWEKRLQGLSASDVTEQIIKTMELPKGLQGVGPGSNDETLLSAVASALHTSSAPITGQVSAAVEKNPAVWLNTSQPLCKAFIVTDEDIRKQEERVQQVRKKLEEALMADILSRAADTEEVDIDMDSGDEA
UniProt Q8K4B0: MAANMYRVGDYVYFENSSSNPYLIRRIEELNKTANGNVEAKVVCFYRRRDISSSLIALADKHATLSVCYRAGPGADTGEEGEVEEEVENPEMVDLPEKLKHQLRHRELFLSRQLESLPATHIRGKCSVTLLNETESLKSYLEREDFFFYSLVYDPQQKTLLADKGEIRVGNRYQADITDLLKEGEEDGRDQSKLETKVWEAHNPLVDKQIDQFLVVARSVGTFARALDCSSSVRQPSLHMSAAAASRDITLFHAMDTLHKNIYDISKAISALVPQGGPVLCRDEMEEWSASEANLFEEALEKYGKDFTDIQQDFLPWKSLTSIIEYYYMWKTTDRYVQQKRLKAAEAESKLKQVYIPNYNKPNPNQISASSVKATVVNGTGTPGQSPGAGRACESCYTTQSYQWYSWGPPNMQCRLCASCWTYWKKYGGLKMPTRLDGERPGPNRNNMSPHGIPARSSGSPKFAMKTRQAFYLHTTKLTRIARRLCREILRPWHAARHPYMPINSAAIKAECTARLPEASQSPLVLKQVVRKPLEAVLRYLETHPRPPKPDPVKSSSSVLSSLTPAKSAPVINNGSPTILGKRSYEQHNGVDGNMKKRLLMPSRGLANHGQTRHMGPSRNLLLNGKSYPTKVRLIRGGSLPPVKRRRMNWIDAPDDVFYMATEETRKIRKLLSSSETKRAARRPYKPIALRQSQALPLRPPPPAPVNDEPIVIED
UniProt Q8BX22: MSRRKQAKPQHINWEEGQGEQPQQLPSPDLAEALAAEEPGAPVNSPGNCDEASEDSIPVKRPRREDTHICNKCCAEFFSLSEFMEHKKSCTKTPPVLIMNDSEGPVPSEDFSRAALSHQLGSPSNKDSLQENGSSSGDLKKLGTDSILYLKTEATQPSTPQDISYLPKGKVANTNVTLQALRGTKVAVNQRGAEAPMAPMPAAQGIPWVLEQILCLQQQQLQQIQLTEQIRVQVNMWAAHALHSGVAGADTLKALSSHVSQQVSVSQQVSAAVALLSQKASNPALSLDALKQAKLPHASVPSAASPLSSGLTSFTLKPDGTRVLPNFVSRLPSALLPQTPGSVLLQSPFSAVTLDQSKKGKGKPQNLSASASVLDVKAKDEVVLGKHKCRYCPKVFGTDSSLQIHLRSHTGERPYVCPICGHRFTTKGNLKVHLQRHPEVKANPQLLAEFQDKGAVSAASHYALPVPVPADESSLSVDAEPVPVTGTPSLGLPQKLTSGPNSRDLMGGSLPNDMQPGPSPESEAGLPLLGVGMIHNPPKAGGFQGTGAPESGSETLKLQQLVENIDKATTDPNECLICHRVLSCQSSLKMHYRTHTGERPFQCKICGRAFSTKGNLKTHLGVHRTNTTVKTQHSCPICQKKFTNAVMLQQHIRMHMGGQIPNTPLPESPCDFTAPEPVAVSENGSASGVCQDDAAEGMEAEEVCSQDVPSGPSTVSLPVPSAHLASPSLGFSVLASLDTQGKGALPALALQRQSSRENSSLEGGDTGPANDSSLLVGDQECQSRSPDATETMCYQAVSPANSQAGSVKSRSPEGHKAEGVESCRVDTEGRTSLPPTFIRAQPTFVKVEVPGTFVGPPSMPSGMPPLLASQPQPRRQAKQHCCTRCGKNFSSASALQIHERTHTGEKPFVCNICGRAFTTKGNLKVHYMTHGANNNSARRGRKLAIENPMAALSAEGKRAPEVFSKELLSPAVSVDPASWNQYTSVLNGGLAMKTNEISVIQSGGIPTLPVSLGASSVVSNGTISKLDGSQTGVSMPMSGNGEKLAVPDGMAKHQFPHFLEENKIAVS
UniProt Q8CHY6: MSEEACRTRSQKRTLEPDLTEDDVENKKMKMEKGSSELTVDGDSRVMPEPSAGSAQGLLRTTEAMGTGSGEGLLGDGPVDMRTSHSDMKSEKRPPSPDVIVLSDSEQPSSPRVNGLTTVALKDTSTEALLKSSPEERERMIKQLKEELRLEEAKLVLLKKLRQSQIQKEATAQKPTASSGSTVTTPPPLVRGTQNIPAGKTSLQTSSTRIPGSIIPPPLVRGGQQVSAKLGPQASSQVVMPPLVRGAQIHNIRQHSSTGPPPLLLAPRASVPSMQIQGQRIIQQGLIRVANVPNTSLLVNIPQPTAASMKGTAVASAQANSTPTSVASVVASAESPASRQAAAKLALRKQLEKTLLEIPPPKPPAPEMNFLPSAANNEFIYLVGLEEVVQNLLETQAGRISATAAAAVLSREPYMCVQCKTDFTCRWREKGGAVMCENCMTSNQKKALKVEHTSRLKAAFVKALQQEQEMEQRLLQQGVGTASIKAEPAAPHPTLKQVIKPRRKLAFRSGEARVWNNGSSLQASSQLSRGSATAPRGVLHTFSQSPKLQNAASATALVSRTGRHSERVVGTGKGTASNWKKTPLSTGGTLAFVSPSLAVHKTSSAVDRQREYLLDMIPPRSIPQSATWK
UniProt Q92769: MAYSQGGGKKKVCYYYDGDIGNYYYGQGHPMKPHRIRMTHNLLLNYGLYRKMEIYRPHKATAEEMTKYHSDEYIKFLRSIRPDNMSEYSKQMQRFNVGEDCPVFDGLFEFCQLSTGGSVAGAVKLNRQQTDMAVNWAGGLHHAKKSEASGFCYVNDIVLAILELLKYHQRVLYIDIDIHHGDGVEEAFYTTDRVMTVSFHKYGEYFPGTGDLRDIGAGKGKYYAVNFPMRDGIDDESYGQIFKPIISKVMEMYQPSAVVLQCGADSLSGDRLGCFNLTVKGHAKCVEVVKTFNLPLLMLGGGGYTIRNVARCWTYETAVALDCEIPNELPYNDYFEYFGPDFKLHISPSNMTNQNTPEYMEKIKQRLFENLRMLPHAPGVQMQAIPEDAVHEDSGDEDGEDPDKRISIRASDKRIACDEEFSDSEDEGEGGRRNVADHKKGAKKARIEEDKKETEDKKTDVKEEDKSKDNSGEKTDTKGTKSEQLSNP
UniProt Q8WXI9: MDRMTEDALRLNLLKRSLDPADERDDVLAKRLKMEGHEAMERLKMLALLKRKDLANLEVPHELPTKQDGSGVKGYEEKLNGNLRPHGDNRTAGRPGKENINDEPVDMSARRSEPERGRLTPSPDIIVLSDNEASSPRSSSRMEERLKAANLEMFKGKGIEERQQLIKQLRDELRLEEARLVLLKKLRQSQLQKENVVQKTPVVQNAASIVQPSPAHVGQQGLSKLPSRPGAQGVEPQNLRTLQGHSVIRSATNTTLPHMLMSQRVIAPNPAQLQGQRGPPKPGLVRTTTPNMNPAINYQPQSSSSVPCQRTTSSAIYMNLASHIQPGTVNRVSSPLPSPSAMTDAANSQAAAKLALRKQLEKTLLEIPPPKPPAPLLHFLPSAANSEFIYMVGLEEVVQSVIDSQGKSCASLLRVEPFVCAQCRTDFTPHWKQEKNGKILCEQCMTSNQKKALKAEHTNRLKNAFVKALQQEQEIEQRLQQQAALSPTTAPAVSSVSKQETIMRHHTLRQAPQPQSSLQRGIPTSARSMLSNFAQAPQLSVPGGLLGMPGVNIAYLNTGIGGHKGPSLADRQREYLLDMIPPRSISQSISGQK

T1: Flag-2xStrepII (FS2) tagged full-length PWWP2A (UniProt Q96N64)
T1 sequence: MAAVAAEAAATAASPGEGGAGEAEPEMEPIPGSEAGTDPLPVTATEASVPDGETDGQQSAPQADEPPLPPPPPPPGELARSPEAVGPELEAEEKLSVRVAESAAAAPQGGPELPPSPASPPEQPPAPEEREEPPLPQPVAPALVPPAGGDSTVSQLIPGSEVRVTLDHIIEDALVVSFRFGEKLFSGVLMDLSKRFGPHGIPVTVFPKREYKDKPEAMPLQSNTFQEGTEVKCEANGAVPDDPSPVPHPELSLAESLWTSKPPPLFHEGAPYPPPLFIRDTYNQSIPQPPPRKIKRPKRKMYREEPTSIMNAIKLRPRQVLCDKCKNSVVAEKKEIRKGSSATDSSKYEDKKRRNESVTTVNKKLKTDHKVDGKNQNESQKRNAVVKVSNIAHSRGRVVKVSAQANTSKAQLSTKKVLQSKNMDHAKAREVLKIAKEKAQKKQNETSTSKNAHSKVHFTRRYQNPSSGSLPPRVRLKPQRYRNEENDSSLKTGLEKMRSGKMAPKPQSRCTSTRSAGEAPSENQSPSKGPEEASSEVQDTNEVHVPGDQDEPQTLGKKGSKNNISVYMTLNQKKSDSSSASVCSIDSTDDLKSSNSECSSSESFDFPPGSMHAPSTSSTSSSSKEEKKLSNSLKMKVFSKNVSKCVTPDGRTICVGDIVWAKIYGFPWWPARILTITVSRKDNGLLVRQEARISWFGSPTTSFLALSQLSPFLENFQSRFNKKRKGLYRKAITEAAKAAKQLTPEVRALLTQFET

T2: PWWP2A purified from HeLa cells (UniProt Q96N64)
T2 sequence: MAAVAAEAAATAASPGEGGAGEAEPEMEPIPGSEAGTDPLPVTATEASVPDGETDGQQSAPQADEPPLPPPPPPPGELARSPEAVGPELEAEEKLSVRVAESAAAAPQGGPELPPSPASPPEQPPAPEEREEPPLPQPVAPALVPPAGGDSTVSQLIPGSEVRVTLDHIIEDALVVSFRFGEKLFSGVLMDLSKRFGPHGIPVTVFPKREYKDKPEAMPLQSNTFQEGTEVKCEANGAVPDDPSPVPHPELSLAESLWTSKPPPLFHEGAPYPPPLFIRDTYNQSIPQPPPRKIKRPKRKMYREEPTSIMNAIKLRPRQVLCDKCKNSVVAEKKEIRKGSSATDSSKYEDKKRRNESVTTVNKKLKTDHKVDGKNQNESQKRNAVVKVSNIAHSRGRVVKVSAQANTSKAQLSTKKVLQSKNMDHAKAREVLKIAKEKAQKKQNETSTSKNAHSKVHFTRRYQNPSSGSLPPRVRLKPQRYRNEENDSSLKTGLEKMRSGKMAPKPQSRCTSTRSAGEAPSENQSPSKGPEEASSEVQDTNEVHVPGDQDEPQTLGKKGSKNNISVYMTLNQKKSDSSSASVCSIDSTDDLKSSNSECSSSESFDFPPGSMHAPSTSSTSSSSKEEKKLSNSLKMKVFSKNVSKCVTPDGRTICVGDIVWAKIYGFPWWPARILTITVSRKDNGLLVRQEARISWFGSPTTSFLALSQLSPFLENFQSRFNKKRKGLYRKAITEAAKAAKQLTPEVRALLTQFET

B1: ZFP521, endogenous in mESCs (protein, UniProt Q6KAS7 1-1311)
chain: MSRRKQAKPRSLKDPNCKLEDKIEDGEAVDCKKRPEDGEELEEDAVHSCDSCLQVFESLSDITEHKIHQCQLTDGVDVEDDPSCSWPASSPSSKDQTSPSHGEGCDFGEEEGGPGLPYPCQFCDKSFSRLSYLKHHEQSHSDKLPFKCTYCSRLFKHKRSRDRHIKLHTGDKKYHCSECDAAFSRSDHLKIHLKTHTSNKPYKCAVCRRGFLSSSSLHGHMQVHERNKDGSQSGSRMEDWKMKDTQKCSQCEEGFDFPEDLQKHIAECHPECSPNEDRAALQCMYCHELFVEETSLMNHIEQVHGGEKKNSCSICSESFLTVEELYSHMDSHQQPESCNHSNSPSLVTVGYTSVSSTTPDSNLSVDSSTMVEAAPPIPKSRGRKRAAQQTSDMTGPSSKQAKVTYSCIYCNKQLFSSLAVLQIHLKTMHLDKPEQAHICQYCLEVLPSLYNLNEHLKQVHEAQDPGLIVSAMPAIVYQCNFCSEVVNDLNTLQEHIRCSHGFANPAAKDSNAFFCPHCYMGFLTDSSLEEHIRQVHCDLSGSRFGSPVLGTPKEPVVEVYSCSYCTNSPIFNSVLKLNKHIKENHKNIPLALNYIHNGKKSRALSPLSPVAIEQTTLKMMQTVGGGPARASGEYICNQCGAKYTSLDSFQTHLKTHLDTVLPKLTCPQCNKEFPNQESLLKHVTIHFMITSTYYICESCDKQFTSVDDLQKHLLDMHTFVFFRCTLCQEVFDSKVSIQLHLAVKHSNEKKVYRCTSCNWDFRNETDLQLHVKHNHLENQGKVHKCIFCGESFGTEVELQCHITTHSKKYNCRFCSKAFHAVILLEKHLREKHCVFETKTPNCGTNGASEQVQKEEAELQTLLTNSQESHNSHDGSEEDVDSSEPMYGCDICGAAYTMETLLQNHQLRDHNIRPGESAIVKKKAELIKGNYKCNVCSRTFFSENGLREHMQTHLGPVKHYMCPICGERFPSLLTLTEHKVTHSKSLDTGNCRICKMPLQSEEEFLEHCQMHPDLRNSLTGFRCVVCMQTVTSTLELKIHGTFHMQKTGNGSSVQTTGRGQHVQKLYKCASCLKEFRSKQDLVKLDINGLPYGLCAGCVNLSKSSSPGLSLPPGASRPGLGQNESLSAMEGKGKAGGLKTRCSSCNVKFESESELQNHIQTVHRELVPDANSTQLKTPQVSPMPRISPSQSDEKKTYQCIKCQMVFYNEWDIQVHVANHMIDEGLNHECKLCSQTFDSPAKLQCHLIEHSFEGMGGTFKCPVCFTVFVQANKLQQHIFSAHGQEDKIYDCTQCPQKFFFQTELQNHTMTQHSS
B2: BEND3, endogenous in mESCs (protein, UniProt Q6PAL0 1-825)
chain: MNSTEISEDVEEVLKNNPVKAEGSDATLDCSRNSRASEKHLLESVLTALHDSSKRKQLDSDGQPDSVPSVKRRRLIPEALLAGMRTRENSSPCQGNGEPASRGRSGSCAWPAEEEPSTEATVPSYKKPLYGISHKIMEKKNPPSGDLLSPYELFEKANSSSGPSPLRLLSESQKRECGVGVATDGDLNIYFLIQKMFYMLNGLTTNMSQLHSKMDLLSLEVSRVKKQVSPSELVAKFQPPPEYQLTASELKQIAEQSLSCGDLACRLLLQLFPELFSDVDFSRGCSACGFAAKRKLESLHLQLIRNYVEVYYPNVKDTAVWQAECLPQLNDFFSRFWAQREMEDSQPGGQVTNFFEADQVDAGHFLDNKDQEEALSLDRSSTIASDHVVDTQDLTEFLDEASSPGEFAVFLLHRLFPELFDHRKLGEQYSCYGDGGKQELDPQRLQIIRNYTEIYFPDMQEEEAWLQQCAQRINDELEGLGLEGGSEGEAPRDDCYDSSSLPDDISVVKVEDNFEGERPGRRSKKIWLVPIDFDKLEIPQPDFEMPGSDCLLSKEQLRSIYESSLSIGNFASRLLVHLFPELFTHENLRKQYNCSGSLGKKQLDPARIRLIRHYVQLLYPRAKNDRVWTLEFVGKLDERCRRRDTEQRRSYQQQRKVHVPGPECRDLASYAINPERFREEFEGPPLPPERSSKDFCKIPLDELVVPSPDFPVPSPYLLSDKEVREIVQQSLSVGNFAARLLVRLFPELFTTENLRLQYNHSGACNKKQLDPTRLRLIRHYVEAVYPVEKMEEVWHYECIPSIDERCRRPNRKKCDILKKAKKVEK
B3: ZFP423, endogenous in mESCs (protein, UniProt Q80TS5 1-1292)
chain: MSRRKQAKPRSVKVEEGEASDFSLAWDSSVAAAGGLEGEPECDRKTSRALEDRNSVTSQEERNEDDEDVEDESIYTCDHCQQDFESLADLTDHRAHRCPGDGDDDPQLSWVASSPSSKDVASPTQMIGDGCDLGLGEEEGGTGLPYPCQFCDKSFIRLSYLKRHEQIHSDKLPFKCTFCSRLFKHKRSRDRHIKLHTGDKKYHCHECEAAFSRSDHLKIHLKTHSSSKPFKCSVCKRGFSSTSSLQSHMQAHKKNKEHLAKSEKEAKKDDFMCDYCEDTFSQTEELEKHVLTLHPQLSEKADLQCIHCPEVFVDESTLLAHIHQAHANQKHKCPMCPEQFSSVEGVYCHLDSHRQPDSSNHSVSPDPVLGSVASMSSATPDSSASVERGSTPDSTLKPLRGQKKMRDDGQSWPKVVYSCPYCSKRDFTSLAVLEIHLKTIHADKPQQSHTCQICLDSMPTLYNLNEHVRKLHKSHAYPVMQFGNISAFHCNYCPEMFADINSLQEHIRVSHCGPNANPPDGNNAFFCNQCSMGFLTESSLTEHIQQAHCSVGSTKLESPVVQPTQSFMEVYSCPYCTNSPIFGSILKLTKHIKENHKNIPLAHSKKSKAEQSPVSSDVEVSSPKRQRLSGSANSISNGEYPCNQCDLKFSNFESFQTHLKLHLELLLRKQACPQCKEDFDSQESLLQHLTVHYMTTSTHYVCESCDKQFSSVDDLQKHLLDMHTFVLYHCTLCQEVFDSKVSIQVHLAVKHSNEKKMYRCTACNWDFRKEADLQVHVKHSHLGNPAKAHKCIFCGETFSTEVELQCHITTHSKKYNCRFCSKAFHAVILLEKHLREKHCVFDAAAENGTANGVPPTSTKKAEPADLQGMLLKNPEAPNSHEASEDDVDASEPMYGCDICGAAYTMEVLLQNHRLRDHNIRPGEDDGSRKKAEFIKGSHKCNVCSRTFFSENGLREHLQTHRGPAKHYMCPICGERFPSLLTLTEHKVTHSKSLDTGTCRICKMPLQSEEEFIEHCQMHPDLRNSLTGFRCVVCMQTVTSTLELKIHGTFHMQKLAGSSAASSPNGQGLQKLYKCALCLKEFRSKQDLVRLDVNGLPYGLCAGCMARSANGQVGGLAPPEPADRPCAGLRCPECNVKFESAEDLESHMQVDHRDLTPETSGPRKGAQTSPVPRKKTYQCIKCQMTFENEREIQIHVANHMIEEGINHECKLCNQMFDSPAKLLCHLIEHSFEGMGGTFKCPVCFTVFVQANKLQQHIFAVHGQEDKIYDCSQCPQKFFFQTELQNHTMSQHAQ
B4: PWWP2B co-purified with PWWP2A (protein, UniProt Q6NUJ5 1-590)
chain: MEPRAGCRLPVRVEQVVNGALVVTVSCGERSFAGILLDCTKKSGLFGLPPLAPLPQVDESPVNDSHGRAPEEGDAEVMQLGSSSPPPARGVQPPETTRPEPPPPLVPPLPAGSLPPYPPYFEGAPFPHPLWLRDTYKLWVPQPPPRTIKRTRRRLSRNRDPGRLILSTIRLRPRQVLCEKCKSTLSPPEASPGPPAAPRARRRLGSGPDRELRKPEEPENGEPTAAATARRSKRERREEDRAPAEQVPRSPVIKISYSTPQGKGEVVKIPSRVHGSLEPFRPQQAPQDDGSQDPEVLDRESRDRPSCAPSASIPKLKLTRPVPAGADLPPPKIRLKPHRLGDSEHEPVYRAELVGELNGYLRDSSPAPCADGPAGGLADLSSGSSGEDDDFKSCPQGPQGREGLAFLVSCPEGRADCASESACSSDSLDEARSSGSEGTPADTGDLSPGHGASAPSVSREARQTVPPLTVRLHTQSVSECITEDGRTVAVGDIVWGKIHGFPWWPARVLDISLGQKEDGEPSWREAKVSWFGSPTTSFLSISKLSPFSEFFKLRFNRKKKGMYRKAITEAANAARHVAPEIRELLTQFET

No constants are given. Whether binding was seen depends on the method and setting. Binding seen in cells or lysates may run through a third protein. Here binding means that the protein was enriched with, or labelled near, the bait; the list need not be complete. For part of these data: A no says only that the protein was not detected with the bait. For part of these data: Sequences can lack the tags named with a protein.

The target of the first experiment is T1, Flag-2xStrepII (FS2) tagged full-length PWWP2A. Description: affinity purification with mass spectrometry; Streptactin agarose purification of the FS2-tagged bait from 15 mg benzonase-treated mESC nuclear extract; washes 8 x 15 min in 500 mM NaCl, 0.2% NP-40; desthiobiotin elution; LC-MS/MS (Mascot, 1% FDR).
As to “CHD3, endogenous in mESCs (mouse (endogenous in E14 mESCs)) (enzyme)”, the binding entry was “no binding”. On to “CHD4, endogenous in mESCs (from UniProt Q6PDQ2 1-1915) (enzyme)”, for which the binding entry was “no binding”.

Turning to “HDAC2, endogenous in mESCs (from UniProt P70288 1-488) (enzyme)”, the binding result was “binds”.

Turning to “MBD2, endogenous in mESCs (from UniProt Q9Z2E1 1-414)”, the binding result is on record as “no binding”. Same read-out and setting: next, “MTA1, endogenous in mESCs (from UniProt Q8K4B0 1-715)”: “binds”; “MTA3, endogenous in mESCs (from UniProt Q924K8 1-591)”: “binds”; “SALL4, endogenous in mESCs (from UniProt Q8BX22 1-1067)”: “binds”. In the case of “p66α, endogenous in mESCs (from UniProt Q8CHY6 1-629)”, the binding result was “no binding”. As to “p66β, endogenous in mESCs (from UniProt Q8VHR5 1-594)”, the binding entry is on record as “no binding”.

Regarding B1, the binding entry is listed as “binds”. Still for that read-out and setting: the result for B2 reads “binds”; that for B3, “binds”.

The next experiment concerns the target T2, PWWP2A purified from HeLa cells. Description: affinity purification with mass spectrometry; purification of PWWP2A-associated proteins from HeLa under high salt (500 mM NaCl); mass spectrometry.
Take “CHD3, endogenous in HeLa (from UniProt Q12873 1-2000) (enzyme)”: the binding result is recorded as “no binding”.

“CHD4, endogenous in HeLa (from UniProt Q14839 1-1912) (enzyme)”: the binding entry is given as “no binding”. Turning to “HDAC2, endogenous in HeLa nuclear extract (from UniProt Q92769 1-488) (enzyme)”, the binding entry was “binds”. On the same count and under the same terms, next, “MBD2, endogenous in HeLa (from UniProt Q9UBB5 1-411)”: “no binding”. Same read-out and setting: next, “p66β, endogenous in HeLa (from UniProt Q8WXI9 1-593)”: “no binding”.

The next experiment has the same target. Described as above. The source holds these as a separate data set.
For B4, the binding result is on record as “binds”.
